# Results are given in words; binding and its absence hold for the method and conditions named. Some binding calls cover weakened binding; strength is not graded here.
# B1: alpha-2 catenin (bait, fragment not stated) (protein, human, UniProt P26232 1-953, looked up)
# chain: MTSATSPIILKWDPKSLEIRTLTVERLLEPLVTQVTTLVNTSNKGPSGKKKGRSKKAHVLAASVEQATQNFLEKGEQIAKESQDLKEELVAAVEDVRKQGETMRIASSEFADDPCSSVKRGTMVRAARALLSAVTRLLILADMADVMRLLSHLKIVEEALEAVKNATNEQDLANRFKEFGKEMVKLNYVAARRQQELKDPHCRDEMAAARGALKKNATMLYTASQAFLRHPDVAATRANRDYVFKQVQEAIAGISNAAQATSPTDEAKGHTGIGELAAALNEFDNKIILDPMTFSEARFRPSLEERLESIISGAALMADSSCTRDDRRERIVAECNAVRQALQDLLSEYMNNTGRKEKGDPLNIAIDKMTKKTRDLRRQLRKAVMDHISDSFLETNVPLLVLIEAAKSGNEKEVKEYAQVFREHANKLVEVANLACSISNNEEGVKLVRMAATQIDSLCPQVINAALTLAARPQSKVAQDNMDVFKDQWEKQVRVLTEAVDDITSVDDFLSVSENHILEDVNKCVIALQEGDVDTLDRTAGAIRGRAARVIHIINAEMENYEAGVYTEKVLEATKLLSETVMPRFAEQVEVAIEALSANVPQPFEENEFIDASRLVYDGVRDIRKAVLMIRTPEELEDDSDFEQEDYDVRSRTSVQTEDDQLIAGQSARAIMAQLPQEEKAKIAEQVEIFHQEKSKLDAEVAKWDDSGNDIIVLAKQMCMIMMEMTDFTRGKGPLKNTSDVINAAKKIAEAGSRMDKLARAVADQCPDSACKQDLLAYLQRIALYCHQLNICSKVKAEVQNLGGELIVSGTGVQSTFTTFYEVDCDVIDGGRASQLSTHLPTCAEGAPIGSGSSDSSMLDSATSLIQAAKNLMNAVVLTVKASYVASTKYQKVYGTAAVNSPVVSWKMKAPEKKPLVKREKPEEFQTRVRRGSQKKHISPVQALSEFKAMDSF
# Biological target: novel protein PN9667 (fragment not stated) (human)
# Test: yeast two-hybrid
binder,measurement,value
B1,binding,binds

# From patent US20050222029A1
